Laboratory results: PubChem BioAssay AID504786 (Drosophila RNAi Screening Center, 2011)

- Screen: 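Knock-downs reducing HIF reporter induction by the iron chelator DFO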 (primary screen)
- Cells: Drosophila S2 cells with a stable HIF luciferase reporter
- Knock-down reagent: long dsRNA against Drosophila genes, about 0.2 µg dsRNA per well of a 384-well plate
- Timing: three days of knock-down, then 20 h of DFO before reading
- Conditions: desferrioxamine (DFO) at 100 µM, an iron chelator that mimics hypoxia, for 20 h
- Measured: 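Firefly luciferase driven by the mouse ldh-a hypoxia-response element, measured after 20 h of 100 µM DFO; z-scores per plate, higher means more signal lost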
- Reading the numbers: z-score: higher = stronger loss of HIF reporter signal
In all, the deposit lists about 21,000 reagents; this is an unselected part of those with a known target gene and a result. 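Primary screen; positive scores mean lost reporter signal, so the sign may be inverted from the usual convention.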 A plus sign joins genes that one reagent is predicted to hit. Further read-outs or replicates are left out here.

CG3309 [DRSC18301]
- z-score, replicate 1: -0.1

CG41020 (retired record) [DRSC20866]
- z-score, replicate 1: 0

CG32599 [DRSC19433]
- z-score, replicate 1: -0.2

CG12679 [DRSC20493]
- z-score, replicate 1: -0.2

dsx-c73A [DRSC09435]
- z-score, replicate 1: 0

dsx-c73A [DRSC09914]
- z-score, replicate 1: -0.2

dsx-c73A [DRSC10429]
- z-score, replicate 1: -0.2

Cpr5C [DRSC18340]
- z-score, replicate 1: -0.3

Phax [DRSC07066]
- z-score, replicate 1: -0.3

dpr6 [DRSC09005]
- z-score, replicate 1: 0.9

dpr6 [DRSC10162]
- z-score, replicate 1: -0.2

dpr6 [DRSC10163]
- z-score, replicate 1: -0.6

sphinx1 [DRSC10993]
- z-score, replicate 1: -0.4

Vps24 [DRSC12332]
- z-score, replicate 1: -0.3

CG17959 [DRSC18142]
- z-score, replicate 1: -0.3

Tmem43 [DRSC10964]
- z-score, replicate 1: -0.2

Ttc30 [DRSC01300]
- z-score, replicate 1: -0.5

Ttc30 [DRSC02818]
- z-score, replicate 1: -0.2

PPYR1 [DRSC19612]
- z-score, replicate 1: -0.2

Gr58b [DRSC04140]
- z-score, replicate 1: -0.2

h-cup + Rbp [DRSC14990]
- z-score, replicate 1: -0.2

CG14933 + CG42486 [DRSC02415]
- z-score, replicate 1: 0.1

CG14395 [DRSC14852]
- z-score, replicate 1: -0.4

Ak1 [DRSC10248]
- z-score, replicate 1: -0.2

Rgk3 [DRSC04250]
- z-score, replicate 1: -0.2

Rgk3 [DRSC04251]
- z-score, replicate 1: -0.3

Rgk3 [DRSC04254]
- z-score, replicate 1: -0.2

Rgk3 [DRSC04255]
- z-score, replicate 1: -0.2

CG32191 [DRSC10522]
- z-score, replicate 1: 0

CG14265 [DRSC18591]
- z-score, replicate 1: -0.3

Ugt302E1 [DRSC15635]
- z-score, replicate 1: -0.2

Lint-1 [DRSC19822]
- z-score, replicate 1: -0.4

Ctr1A [DRSC18336]
- z-score, replicate 1: 2

CG13065 [DRSC09948]
- z-score, replicate 1: -0.3

CG1894 [DRSC15396]
- z-score, replicate 1: -0.3

Alp10 [DRSC09749]
- z-score, replicate 1: -0.4

CG12426 [DRSC14516]
- z-score, replicate 1: -0.4

CG16790 [DRSC15156]
- z-score, replicate 1: -0.4

Pdcd4 [DRSC19360]
- z-score, replicate 1: -0.6

SerRS-m [DRSC14096]
- z-score, replicate 1: 0.1
